Reference: the supplement of paper PMC12889115
This is one part of the list. Values are raw readings; no control value is given beside them.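 In the initial screen, polymyxin B was used at a concentration that permeabilizes Salmonella's outer membrane but not its inner membrane. Maximum growth was set by DMSO wells with or without polymyxin B. Since plates varied, data were ranked per plate, and compounds giving the lowest OD600 advanced as hits.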

System: Salmonella enterica serovar Typhimurium SL1344
Assay: bacterial growth OD600 after 18 h with compound and polymyxin B; higher = more bacterial growth (less inhibition)
Conditions: 50 µM, Mueller-Hinton broth

SMILES: COc1cccc(CC2(CCC(=O)NCc3cc(C(F)(F)F)ccc3F)CCC(=O)N2)c1 (stereo not given)
- bacterial growth OD600 (polymyxin B 0.75 µg/mL): 0.794

SMILES: C=Cc1ccc(C(=O)N2CCC3(CC2)c2ccccc2[C@@H](NC(=O)CC)[C@@H]3OCc2cccnc2)cc1
- bacterial growth OD600 (polymyxin B 0.75 µg/mL): 0.825

SMILES: O=C(c1cc[n+]([O-])cc1)N1CCC(C2CCN(CCc3ccccc3)CC2)C1 (stereo not given)
- bacterial growth OD600 (polymyxin B 1 µg/mL): 0.967

SMILES: COCC1CCCCN1C(=O)c1cc(OC)ccc1OC1CCN(C(=O)C2CC2)CC1 (stereo not given)
- bacterial growth OD600 (polymyxin B 1 µg/mL): 0.889

SMILES: C=CCOc1cccc(C(=O)N(C)C2CCCN(Cc3ccccc3F)C2)c1 (stereo not given)
- bacterial growth OD600 (polymyxin B 1 µg/mL): 0.797

SMILES: Cc1nc(C)c(CN2CCC(C3CCN(Cc4cccnc4)CC3)C2)nc1C (stereo not given)
- bacterial growth OD600 (polymyxin B 0.75 µg/mL): 0.726

SMILES: CN(Cc1cnn(C)c1)C(=O)c1csc2nc(-c3ccc(C(F)(F)F)cc3)cn12
- bacterial growth OD600 (polymyxin B 1 µg/mL): 0.754

SMILES: O=C(CCC1CCN(C(=O)c2cccnc2)CC1)Nc1ccc(F)c(Cl)c1
- bacterial growth OD600 (polymyxin B 1 µg/mL): 1.03

SMILES: CCO[C@H]1[C@H](NC(=O)c2cccnc2)c2ccccc2C12CCN(C(=O)c1cnn(C(C)C)c1)CC2
- bacterial growth OD600 (polymyxin B 0.75 µg/mL): 0.843

SMILES: CC(=O)N1CCC(N2CCCC(CCc3ccc(F)c(F)c3)C2)CC1 (stereo not given)
- bacterial growth OD600 (polymyxin B 0.75 µg/mL): 0.843

SMILES: CCCCc1nc2cc(C(=O)NC(C)CCCC(C)(C)O)ccc2o1 (stereo not given)
- bacterial growth OD600 (polymyxin B 1 µg/mL): 1.27

SMILES: COc1ccccc1CCC(=O)Nc1cnn(CC(=O)NCc2ccc(-n3cccn3)cc2)c1
- bacterial growth OD600 (polymyxin B 0.75 µg/mL): 0.773

SMILES: O=C(NCc1cccnc1N1CCCC(O)C1)C1(c2ccccc2F)CC1 (stereo not given)
- bacterial growth OD600 (polymyxin B 0.75 µg/mL): 0.853

SMILES: CCNC(=O)c1cn(CCc2ccccc2)cc(C(=O)N2CCN(c3ccccc3C)CC2)c1=O
- bacterial growth OD600 (polymyxin B 0.75 µg/mL): 0.999

SMILES: COc1ccc(NC(=O)NC2CC(=O)N(C3CCCCCC3)C2)cc1 (stereo not given)
- bacterial growth OD600 (polymyxin B 1 µg/mL): 0.946

SMILES: CCCNc1ccc(C(=O)N2CCCN(c3ncccn3)CC2)cn1
- bacterial growth OD600 (polymyxin B 1 µg/mL): 0.896

SMILES: Cc1nc(-c2ccncc2)ncc1C(C)NCc1nc2ccccc2[nH]1 (stereo not given)
- bacterial growth OD600 (polymyxin B 0.75 µg/mL): 0.777

SMILES: O=C(NC1CCCC1)C1CCCN(C2CCN(C(=O)C3CC3)CC2)C1 (stereo not given)
- bacterial growth OD600 (polymyxin B 1 µg/mL): 0.823

SMILES: CC(=O)c1ccc(C(=O)N2CCOc3ccc(CN4CCC(OCc5ccccc5)CC4)cc3C2)cc1
- bacterial growth OD600 (polymyxin B 0.75 µg/mL): 0.89

SMILES: Cc1ncsc1C(=O)N1CCOC(CCCC(C)C)C1 (stereo not given)
- bacterial growth OD600 (polymyxin B 1 µg/mL): 0.862

SMILES: O=C(NCc1ccc(Cl)cc1)C1CCCN(C2CCN(C(=O)C3CC3)CC2)C1 (stereo not given)
- bacterial growth OD600 (polymyxin B 0.75 µg/mL): 0.924

SMILES: O=C(CC(c1ccccc1)c1ccc(Cl)cc1)NCCN1CCCCC1=O (stereo not given)
- bacterial growth OD600 (polymyxin B 1 µg/mL): 0.791

SMILES: CCCCNC(=O)c1cn(C(C)C)cc(C(=O)NC2CCN(Cc3ccccc3)C2)c1=O (stereo not given)
- bacterial growth OD600 (polymyxin B 0.75 µg/mL): 0.854

SMILES: COc1cccc(OCc2nc(C(=O)N3CCC(C)CC3)co2)c1
- bacterial growth OD600 (polymyxin B 1 µg/mL): 0.971

SMILES: Cc1cccc(NC(=O)CCC2CCN(S(=O)(=O)c3ccc(C)s3)CC2)c1
- bacterial growth OD600 (polymyxin B 1 µg/mL): 0.673

SMILES: COC(C(=O)Nc1ccnn1C1CCN(C(=O)c2cccs2)CC1)c1ccccc1 (stereo not given)
- bacterial growth OD600 (polymyxin B 1 µg/mL): 0.852

SMILES: CCOC(=O)N1CCN(C(=O)C2CCC(=O)N(Cc3ccc(Cl)cc3)C2)CC1 (stereo not given)
- bacterial growth OD600 (polymyxin B 1 µg/mL): 1.08

SMILES: O=C1NCCN(Cc2ccccc2F)C1CC(=O)N(Cc1ccccc1)CC1CC1 (stereo not given)
- bacterial growth OD600 (polymyxin B 1 µg/mL): 0.01

SMILES: CC#CCN1C(=O)NC(CCc2ccccc2)(C2CCN(Cc3ccc(F)cc3F)CC2)C1=O (stereo not given)
- bacterial growth OD600 (polymyxin B 0.75 µg/mL): 0.483

SMILES: OC[C@@H]1CCCN1c1ccc(-c2nc(COc3ccccc3)no2)cn1
- bacterial growth OD600 (polymyxin B 1 µg/mL): 0.474
